For at least one entry, the source does not settle the construct or the ends of the probe. For some assays here: A negative result means that nothing was seen under these conditions. For some assays here: Weaker means in comparison with the reference protein, sequence or condition of that experiment. For some assays here: At least one verdict rests on a figure or table, not on a statement of the authors.
Legend:
Test in all cases: EMSA
[1] = test system: Hfq-His + Crc; conditions: RNA EMSA as in a cited protocol (ref. 13), excess tRNA, non-denaturing polyacrylamide gel, recombinant protein, protein details: C-terminal His6,none (intein removed)
[2] = target: Hfq-His (UniProt C1DLQ2); conditions: excess tRNA, RNA EMSA as in a cited protocol (ref. 13), non-denaturing polyacrylamide gel, recombinant protein
[3] = target: Crc (Azotobacter vinelandii AEIV) (UniProt C1DI50); conditions: excess tRNA, Crc alone, even at high concentrations, RNA EMSA as in a cited protocol (ref. 13), non-denaturing polyacrylamide gel, recombinant protein, label: 32P (radioactive), probe letters rebuilt from the primers and the genome, part of a longer molecule

Chains of the proteins cited; added tags and fusions are not shown. Lines headed by an entry give the natural chain unless they say otherwise; changes in a name come on top.
UniProt C1DLQ2: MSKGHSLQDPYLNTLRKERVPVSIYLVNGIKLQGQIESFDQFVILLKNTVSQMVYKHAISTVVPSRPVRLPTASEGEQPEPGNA

“CAUCCAGAACAACAAACCGGCCACUU [eda-1 A-rich RNA oligo]”: binds ([1]; Hfq plus Crc, label: 5'-32P).
“UUCGUACAACAACAAUAACAAGACGUACCACCCACAAUAAGAACGACGACACGACUCCAGCCUAACAAGAACAACGACGCGGAGACGGAGCCAACCGAUUUUUUUGGAGUAGGCGCAUGCCCGCCGGGCGAAGCCCGCAGCCAGACCGAGAACAACAAAACUGCCACGAAGCAGCACCCGAACUGGUAGGUCCGCAGGACCCUAGGCAAUAUCUGCAACCAAAGAAAUCCGUUUGCUAUUGGCUCCCCAUUGGGGGCCAUCCCGGAGCCAAGGAGCCAACCGGGACGGGCGCACAACAAGAACAACAAGCCCGGAGCAGAACAAGAACAACGCACGCACCUCGAUUUGAAAGGGAGCUUCGGCUCCCUUUCUGCGUUCGA [CrcZ sRNA]”: binds ([1]; Hfq 0.2 or 0.05 uM plus Crc, tripartite complex suggested, BSA has no such effect, label: 32P (radioactive), probe letters rebuilt from the primers and the genome, part of a longer molecule); binds ([2]; stable complex at Hfq as low as 0.02 uM, protein details: C-terminal His6, label: 32P (radioactive), probe letters rebuilt from the primers and the genome, part of a longer molecule); no binding [3].
“AAGCAACAAUCACAACAAGAGGAAAU [gluP A-rich RNA oligo]”: binds more weakly ([2]; Hfq alone, weak complex dissociating during electrophoresis, protein details: C-terminal His6, label: 5'-32P).

Reference: paper PMC5429807
